Measurements published in patent US7807411B2, “Genetically encoded fluorescent coumarin amino acids” (The Scripps Research Institute, priority 2006, dated 2010).
At least one structure is not confirmed: it was looked up by name or label, or the drawing left a doubt.

Assay: Absorption and emission spectra of the coumarin amino acid
Format: physicochemical
Settings: pH 7.4, 100 mM sodium phosphate buffer
Experimental: FIG. 2 provides absorption and emission spectra of L-(7-hydroxycoumarin-4-yl)ethylglycine. Both spectra were recorded at pH 7.4, 100 mM sodium phosphate buffer. At this pH, L-(7-hydroxycoumarin-4-yl)ethylglycine is present in both phenol and phenolate forms (in approximately a 2:1 ratio). The phenolate form has an extinction coefficient of 17000 at […] and a quantum yield of 0.63.

N[C@@H](CCc1cc(=O)oc2cc(O)ccc12)C(=O)O [L-(7-hydroxycoumarin-4-yl)ethylglycine]
ratio of phenol to phenolate forms: ~2:1
